Experimental data reported in publication PMC6811792, “The Binding Affinity of Small Molecules with Yam Tyrosinase (Catechol Oxidase): A Biophysical Study” (Biochemistry Research International, 2019).

Legend:
[1] = system: yam tyrosinase; assay: Circular dichroism spectroscopy of yam tyrosinase secondary structure in presence of inhibitors; set-up: species or system Amorphophallus paeoniifolius; conditions: CD 190-250 nm, 10 min incubation; for Β-turns, % change in secondary structure of yam tyrosinase: control 2.1; for α-helix, % change in secondary structure of yam tyrosinase: control 15.6; for β-sheet, % change in secondary structure of yam tyrosinase: control 33.8
[2] = system: yam tyrosinase; assay: Fluorescence spectroscopy of yam tyrosinase in presence of inhibitors; set-up: species or system Amorphophallus paeoniifolius; conditions: excitation 270 nm; enzyme alone 307 nm

Structure (SMILES)	Β-turns, % change in secondary structure of yam tyrosinase [1] [%]	α-helix, % change in secondary structure of yam tyrosinase [1] [%]	β-sheet, % change in secondary structure of yam tyrosinase [1] [%]	spectral shift of yam tyrosinase fluorescence emission [2]
CC(/C=C/C=C(\C)C(=O)O[C@@H]1O[C@H](CO[C@@H]2O[C@H](CO)[C@@H](O)[C@H](O)[C@H]2O)[C@@H](O)[C@H](O)[C@H]1O)=C\C=C\C=C(C)\C=C\C=C(/C)C(=O)O[C@@H]1O[C@H](CO[C@@H]2O[C@H](CO)[C@@H](O)[C@H](O)[C@H]2O)[C@@H](O)[C@H](O)[C@H]1O [Crocin, crocin]	4.6	9.5	36.5	no spectral shift
Oc1ccc(O)cc1 [Hydroquinone, hydroquinone]	4.5	11.9	35.2	red shift
O=c1cc(CO)occ1O [Kojic acid]	4.5	14.9	32.3	no spectral shift
N[C@@H](Cc1ccc(O)c(O)c1)C(=O)O [L-DOPA, L-3 dihydroxyphenylalanine]	13.5	8.2	25.8	
